Values from PubChem BioAssay AID1671195 (Yale University, 2021)
This is a random part of about 22,000 reagents. About 1,510 of all reagents (6.9%) count as active. 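Active includes knockdowns raising or lowering LDL uptake; positive z-scores mean more uptake, negative mean less.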 A number with no mark means an inactive call. No sequences are given here.

- Aim: 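Knockdowns that increase or decrease uptake of fluorescent LDL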 (primary screen)
- Cell system: human Huh7 hepatoma cells
- Reagents: siRNA pool against human genes, 18 nM
- Timing: about 2 to 2.5 days of knockdown, then 8 h LDL uptake
- Challenge: DiI-labelled LDL at 30 µg/ml for 8 h, in lipoprotein-deficient serum medium
- Detection: 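Per-cell DiI-LDL intensity by automated imaging; well means scaled to the plate median and given as a robust z-score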
- Direction: robust z-score: higher = more LDL uptake after knockdown
- Rule for the call: 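Active when two or more replicates show a robust z-score above 2 or below -2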

no.	gene knocked down	robust z-score, replicate 1	robust z-score, replicate 2	robust z-score, replicate 3
1	LOC391528 (retired record)	-0.603	-0.937	-1.09
2	COL4A5 (collagen type IV alpha 5 chain)	0.175	-0.991	-0.752
3	LOC390146 (retired record)	-0.478	-0.348	-0.688
4	CAB39L (calcium binding protein 39 like)	-0.839	0.105	-0.474
5	KRTAP5-1 (keratin associated protein 5-1)	1.1	0.577	2.99
6	ESYT3 (extended synaptotagmin 3)	-1.72	-1.72	-1.99
7	TIMM50 (translocase of inner mitochondrial membrane 50)	0.154	-0.418	-0.377
8	OPHN1 (oligophrenin 1)	-0.32	-0.0253	-0.408
9	TYR (tyrosinase)	0.492	0.3	-0.196
10	PCARE (photoreceptor cilium actin regulator)	2.36 (active)	3.13	2.55
11	CTAGE1 (cutaneous T cell lymphoma-associated antigen 1)	0.449	0.208	0.59
12	VSTM1 (V-set and transmembrane domain containing 1)	-0.175	-0.248	-0.0374
13	ZSCAN21 (zinc finger and SCAN domain containing 21)	0.047	-0.395	1.26
14	CSNK2A1 (casein kinase 2 alpha 1)	0.983	0.569	1.64
15	GLOD4 (glyoxalase domain containing 4)	-2.34	-0.247	0.0954
16	CNGB3 (cyclic nucleotide gated channel subunit beta 3)	1.4 (active)	2.24	2.7
17	OR6B2 (olfactory receptor family 6 subfamily B member 2)	-1.29	-1.23	-1.16
18	TAS2R41 (taste 2 receptor member 41)	-0.555	-0.7	-0.82
19	ST7 (suppression of tumorigenicity 7)	-1.76	-1.42	-2.4
20	OR52M1 (olfactory receptor family 52 subfamily M member 1)	1.27	0.825	0.238
21	FNBP1L (formin binding protein 1 like)	1.88	1.38	3.23
22	POLR3GL (RNA polymerase III subunit GL)	-0.257	-0.167	-0.315
23	PRR27 (proline rich 27)	-0.45	0.0504	-0.203
24	TEX12 (testis expressed 12)	-0.0173	-0.0371	-0.994
25	GPRC5C (G protein-coupled receptor class C group 5 member C)	-0.0852	-1.05	-0.419
26	EI24 (EI24 autophagy associated transmembrane protein)	0.747	-0.277	-0.0369
27	COL21A1 (collagen type XXI alpha 1 chain)	-0.158	0.199	0.192
28	ANXA10 (annexin A10)	0.574	0.346	0.216
29	LINC00311 (long independently transcribed non-coding RNA 311)	0.553	0.0706	0.639
30	DOK6 (docking protein 6)	-0.252	-0.076	0.0353
31	LOC140103 (retired record)	-1.56	-2.08	-1.41
32	LOC440750 (retired record)	3.79 (active)	3.26	3.63
33	KIF3B (kinesin family member 3B)	-0.125	-0.42	-1.48
34	TMEM245 (transmembrane protein 245)	0.256	0.973	1.89
35	ZNF624 (zinc finger protein 624)	3.85 (active)	3.37	3.11
36	SNAP29 (synaptosome associated protein 29)	0.0988	-1.27	-0.946
37	PLCG1 (phospholipase C gamma 1)	0.531	-0.24	-0.466
38	OR56A5 (olfactory receptor family 56 subfamily A member 5)	0.629	0.808	0.6
39	CDK5RAP2 (CDK5 regulatory subunit associated protein 2)	-0.151	-0.984	-1.18
40	CYP2C18 (cytochrome P450 family 2 subfamily C member 18)	-0.0978	0.242	-0.115
41	SLC14A1	0.397	0.112	0.226
42	LONRF2 (LON peptidase N-terminal domain and ring finger 2)	0.765	-0.767	-0.547
43	ENTPD5 (ectonucleoside triphosphate diphosphohydrolase 5)	-1.09	0.863	-0.813
44	UGT3A1 (UDP glycosyltransferase family 3 member A1)	0.324	-0.399	-0.162
45	ITPR1 (inositol 1,4,5-trisphosphate receptor type 1)	0.802	0.305	0.345
46	LOC388549 (retired record)	-0.193	-0.269	-0.3
47	GGA3	0.632	0.262	0.676
48	KDM1A (lysine demethylase 1A)	-0.506	-0.686	-0.972
49	MTOR (mechanistic target of rapamycin kinase)	0.27	-0.225	-0.181
50	LOC400025 (retired record)	0.975	0.667	0.0748
51	HCG27 (HLA complex group 27)	-0.433	-0.662	-0.68
52	EXOSC10 (exosome component 10)	-0.569	-0.735	0.317
53	GIMAP1 (GTPase, IMAP family member 1)	-0.883	-0.5	-0.689
54	ARG2 (arginase 2)	-1.43	-1.37	-1.38
55	TRPV1	0.494	0.143	0.914
56	TAF1A	4.12 (active)	1.19	1.96
57	OR6C75 (olfactory receptor family 6 subfamily C member 75)	-1.33	-0.847	-1.42
58	TIGD7 (tigger transposable element derived 7)	0.499	0.522	0.0958
59	EXOSC1 (exosome component 1)	0.056	-2.03	-0.485
60	RWDD3 (RWD domain containing 3)	0.552	0.697	0.0225
61	NUDT2 (nudix hydrolase 2)	-0.993	-0.628	-0.68
62	SLC35D2	-0.397	-0.523	-0.606
63	CGGBP1 (CGG triplet repeat binding protein 1)	1.31	-0.44	1.63
64	GGACT (gamma-glutamylamine cyclotransferase)	0.19	0.65	0.68
65	PSMB3 (proteasome 20S subunit beta 3)	-0.598	-1.1	-0.982
66	CCDC8 (coiled-coil domain containing 8 subunit of 3M complex)	0.394	-0.489	0.679
67	CELF1 (CUGBP Elav-like family member 1)	0.416	0.841	0.278
68	LOC442532 (retired record)	1.92	2.1	1.85

Only “robust z-score, replicate 2” (10 entries from above):
GPRC5C (G protein-coupled receptor class C group 5 member C) = -1.05
EI24 (EI24 autophagy associated transmembrane protein) = -0.277
COL21A1 (collagen type XXI alpha 1 chain) = 0.199
ANXA10 (annexin A10) = 0.346
LINC00311 (long independently transcribed non-coding RNA 311) = 0.0706
DOK6 (docking protein 6) = -0.076
LOC140103 (retired record) = -2.08
LOC440750 (retired record) = 3.26 (active)
KIF3B (kinesin family member 3B) = -0.42
TMEM245 (transmembrane protein 245) = 0.973
